Results published in patent publication US6858705 (dated 2005).

Assay: general procedure: Fmoc solid-phase peptide synthesis; 2-chlorotrityl chloride resin
Details: analytical reverse phase HPLC, electrospray mass spectrometry for identity

Substance	purity (crude or final not stated) (conjugation step)	crude purity (method not given) (whole synthesis)
Lys-Asp-D-Tyr-D-Lys((1-(p-CSNH)benzyl) DTPA)-OH	˜90% pure	–
BOC-Lys(BOC)-Lys-D-Tyr(O-tBu)-D-Lys-OH	–	˜90% pure
